{"source": "paper PMC8716928", "binders": {"B1": {"name": "GvpA, entire protein, split-GFP fusion (protein, UniProt P08958 1-76)", "chain": "MAQPDSSGLAEVLDRVLDKGVVVDVWARVSLVGIEILTVEARVVAASVDTFLHYAEEIAKIEQAELTAGAEAAPEA"}}, "biological_target": "Fragment F109–221 of GvpF, split-GFP fusion (Halobacterium salinarum)", "assay": "split reporter; split-GFP (mGFP2) in Hfx. volcanii transformants, entire Gvp proteins and fragments (Figure 7); arrangement of the GFP portions not stated; relative fluorescence (rf) of cells against untransformed WR340", "note": "Results are given in words; binding and its absence hold for the method and conditions named. Binding seen in cells or lysates may run through a third protein. Where a sequence is shown, tags or fusion partners need not be part of it."}
{"binder": "B1", "values": [{"measurement": "binding", "value": "no binding (tested: rf < 4)"}]}
{"binder": "MAQPDSSGLAEVLDRVLDKGVV (peptide, UniProt P08958 1-22)", "note": "[Fragment A1–22 of GvpA, split-GFP fusion]", "values": [{"measurement": "binding", "value": "no binding (tested: rf < 4)"}]}
